PubChem BioAssay AID1471 (National Center for Advancing Translational Sciences (NCATS), 2008)
Values joined by “and” are separate entries in the source; they are usually repeats but may differ in a detail not shown here. Equal values may be shown once. About 310 (0.13%) of roughly 230,000 compounds were called active. The inconclusive results got no clear call from the source; some entries with a clear call stand among them for comparison. Calls follow the shape of the dose curve; as a rule, active = well fitted activation curve with a large enough effect; inconclusive = small, poorly fitted or top-dose-only effect; inactive = no such curve, though single readings can be large or run the other way. Potencies beside an inconclusive call are fits to weak or partial responses and may not hold up.

Test: qHTS Multiplex Assay to Identify Dual Action Probes in a Cell Model of Huntington: Cytoprotection (ATP); also: nearly all actives have a fitted effect of over 45% in size;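 as to cytoprotection (ATP increase): toxic huntingtin expression switched on by the ecdysone agonist tebufenozide; % of control where 0% means no effect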
Conditions: PC12 HTT-Q103 induced, ATP luminescence, 40 h; cytoprotection (ATP increase): at 56.4 µM (top of the series) unless noted
Procedure, shortened: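 Readout: ATPlite luminescence (ATP level). Model: stable PC12, inducible Htt exon1 Q103-GFP. Inducer: tebufenozide, 100 nM final. Compounds: dose series. No G418 in medium.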
Potency is read from the fitted curve at half-maximal effect.

Compound | cytoprotection (ATP increase) | Potency
O=C(CSc1nnc(-c2cccnc2)o1)OC1CCCCC1 | inactive: -11% [at 10 µM] | 
C=CCN1CCc2c(cc(O)c(O)c2Br)[C@H](c2ccccc2)C1 | inactive: -10.7% [at 1.9 µM] | 
O=c1c(O)c(-c2ccc(O)cc2)oc2cc(O)ccc12 |  | inconclusive: 31.6 µM [activator, partial curve, poor fit]
CCCCC1=C(C(=O)OCC)C(C(=O)OCC)Oc2ccccc21 (centres undefined) |  | inconclusive: 50.1 µM [activator, single point]
Cc1cccc(C)c1NS(=O)(=O)c1c(C)[nH]c(=O)[nH]c1=O |  | inactive
C=CCOC(=O)Nc1snnc1C |  | inconclusive: 5.62 µM [activator, single point]
CCOC(=O)CSc1cccc2cccnc12 | inactive: -13.1% [at 0.074 µM] | 
Cc1ccc(C(=O)Nc2cc([N+](=O)[O-])ccc2C)cc1 |  | inconclusive: 5.62 µM [activator, single point]
CC(=O)Nc1cccc(N(C(=O)C2COc3ccccc3O2)C(C(=O)NC2CCCCC2)c2cn(C)nc2C)c1 (centres undefined) |  | inconclusive: 3.98 µM [activator, single point]
CC(=O)NC1=NN(c2ccccc2)C(=O)C1 |  | inactive
COc1ccc(CC(=O)OC(C)CN2CCOCC2)cc1 (centres undefined) |  | inconclusive: 5.62 µM [activator, single point]
O=C(N/N=C/c1cccnc1)C1CCCCC1 |  | inconclusive: 3.98 µM [activator, single point]
CC(/C=C/c1ccco1)=N/NC(=O)CNc1ccccc1C |  | inconclusive: 35.5 µM [activator, single point]
CC(C)CNC(=O)O | inactive: -9.67% [at 10 µM] | 
O=c1c(-c2ccc(F)cc2)nc2cnc(Oc3ccccc3)nc2n1Cc1cccs1 |  | inconclusive: 25.1 µM [activator, single point]
COc1ccc(S(=O)(=O)N(C)c2ccc(C(=O)NC3CCCC3)cc2)cc1 |  | inconclusive: 5.62 µM [activator, single point]
N#CC1=C(N)Oc2n[nH]c(-c3cccs3)c2C1c1ccsc1 (centres undefined) | inactive: 9.53% [at 0.074 µM] | 
O=C(COC(=O)CCSc1ccccc1)NCc1ccc(F)cc1 |  | inconclusive: 1.41 µM [activator, partial curve]
CCOC(=O)CNC(=O)/C(=C\c1ccc(F)cc1)NC(=O)c1ccccc1 |  | inconclusive: 3.55 µM [activator, single point]
Cc1ccc(N2CC(C(=O)OCc3ccc([N+](=O)[O-])cc3)CC2=O)cc1 (centres undefined) |  | inactive
O=c1c2cc(Cl)ccc2nc(-c2ccc([N+](=O)[O-])cc2)n1O |  | inactive
CCOC(=O)c1ccc(Nc2cc(C)nc3ncnn23)cc1 |  | inactive
CCCCCCCC1=Cc2ccccc2C(CC(C)=O)N1C(=O)OC (centres undefined) |  | inconclusive: 0.316 µM [activator, partial curve, poor fit]

Compound | cytoprotection (ATP increase) | Potency
COc1ccc(-n2c(N)c(C(=O)NCc3ccco3)sc2=S)cc1 |  | inactive
O=C(Nc1ccccc1)Nc1nc(-c2ccc(Cl)cc2)cs1 |  | inconclusive: 1.26 µM [activator, single point]
COc1cccc(/C=C/C2=CC3(C)CC2(C)C(c2cccc(OC)c2)CC3=O)c1 (centres undefined) |  | inconclusive: 1.26 µM [activator, single point]
Cc1ccc(NC(=O)CN2CC(C)SC2=NC2CCCCC2)cc1 (centres undefined) |  | inconclusive: 0.398 µM [activator, partial curve]
CC1(C)Cc2c(sc3nc4n(-c5ccccc5)c(=O)c(CCC(=O)O)nn4c(=O)c23)CO1 | inactive: 9.77% [at 10 µM] | 
Cc1ccc(OCc2ccc(C(=O)O)o2)c([N+](=O)[O-])c1 |  | inconclusive: 0.794 µM [activator, single point]
COc1ccc(OCc2cccc(C(=O)Nc3cc(C)on3)c2)cc1 | inactive: -21.7% [at 10 µM] | 
CC(C)(C)C(=O)/C(=C\c1ccc([N+](=O)[O-])cc1)n1cncn1 |  | inconclusive: 5.62 µM [activator, single point]
COC(=O)c1c(NC(=O)c2cccnc2)sc(C(=O)N(C)C)c1C |  | active: 1.26 µM
O=C(O)C(Cc1ccccc1)n1cnnn1 (centres undefined) | inactive: -4.4% [at 0.074 µM] | 
CN(Cc1cccs1)C(=O)Cn1cnc2cc([N+](=O)[O-])ccc2c1=O |  | inconclusive: 0.891 µM [activator, single point]
O=c1cnnc(N/N=C/c2ccccn2)[nH]1 | inactive: -36.1% [at 10 µM] | 
COCCn1c(SCC(=O)N2CCCc3ccccc32)nc2cccnc21 |  | inconclusive: 1.26 µM [activator, single point]
O[C@@H](C1=C/C(=C\c2ccncc2)c2ccccc21)c1ccncc1 | inactive: -6.33% [at 10 µM] | 
COc1cccc2sc(N(CCCN(C)C)C(=O)COc3ccc(Cl)cc3)nc12 |  | inconclusive: 1.26 µM [activator, single point]
COCCn1c(SCC(=O)c2ccc3c(c2)OCCO3)nnc1-c1ccoc1C | inactive: -24% [at 10 µM] | 
CCOC(=O)c1cc(NC(=O)COC)ccc1O | inactive: -5.4% [at 10 µM] | 
C=CCN=c1scc(-c2ccc3c(c2)NC(=O)CO3)n1/N=C(\C)c1ccccn1 | inactive: -52.7% [at 10 µM] | 
CCC(NC(=O)/C(=C\c1ccc2c(c1)OCO2)NC(C)=O)C(=O)O (centres undefined) | inactive: -1.04% [at 10 µM] | 
O=C(Nc1ccc(F)cc1)c1sc(Cl)nc1-c1ccccc1 |  | inconclusive: 5.62 µM [activator, single point]
CO[C@@H]1/C=C\CC(=O)N2CCC[C@@H]2C(=O)OC[C@H](C)C(=O)OC[C@H]1C | inactive: -19.3% [at 10 µM] | 
Cc1ccccc1-n1nnnc1SCc1cc(=O)n2ccsc2n1 |  | inactive
CCNS(=O)(=O)c1ccc(-c2ccc(-n3cnnn3)cc2)cc1 |  | inconclusive: 5.62 µM [activator, single point]

Compound | cytoprotection (ATP increase) | Potency
NNC(=O)c1ccc(COc2ccc([N+](=O)[O-])cc2)o1 | inactive: 1.59% [at 10 µM] | 
COC(=O)[C@@]1(Cc2ccc(F)cc2)[C@H]2c3cc(C(=O)N(C)C)n(C)c3C[C@H]2CN1C(=O)c1ccccc1 |  | inconclusive: 25.1 µM [activator, single point]
Cc1nn(CC(=O)NCc2cccnc2)c(C)c1[N+](=O)[O-] |  | inconclusive: 5.62 µM [activator, single point]
COc1cc(C)c2c(c1C=O)Oc1c(c(C)c(O)c3c1C(O)OC3=O)OC2=O (centres undefined) |  | inactive
CCCn1c(SCC(=O)c2ccc(CC)cc2)n[nH]c1=O |  | inconclusive: 1.26 µM [activator, single point]
CSC1=C(C#N)C(c2ccc(C)s2)CC(=O)N1 (centres undefined) |  | inconclusive: 0.1 µM [activator, full curve, poor fit]
O=C(COC(=O)c1ccc(Br)cc1)NCc1ccc(F)cc1 |  | inconclusive: 0.708 µM [activator, single point]
CCn1c(Cc2ccccc2)nnc1SCc1cccc(C(=O)O)c1 |  | inconclusive: 1.26 µM [activator, single point]
COC(=O)c1c(C(C)=O)c(C)n(C)c1C | inactive: 0.455% [at 10 µM] | 
CCCc1c(-c2ccc(O)cc2)nn(-c2ccc(O)cc2)c1-c1ccc(O)cc1 |  | inconclusive: 31.6 µM [activator, partial curve, poor fit]
CCCCC[C@H](O)/C=C/C1=C(CCCCCCC(=O)O)C(=O)CC1 |  | inconclusive: 22.4 µM [activator, partial curve, poor fit]
O=C(O)C(S)[C@@H](S)C(=O)O (some centres undefined) |  | inconclusive: 0.501 µM [activator, full curve]
Cc1c(N(C)C)c(=O)n(-c2ccccc2)n1C |  | inconclusive: 0.0501 µM [activator, full curve, poor fit]
O=[N+]([O-])c1c(Nc2ccccc2O)ccc2nonc12 |  | inconclusive: 0.501 µM [activator, full curve, poor fit]
COC(=O)C1C(=O)C(C(=O)/C=C/c2ccco2)C(=O)CC1(C)C (centres undefined) |  | inconclusive: 0.562 µM [activator, full curve, poor fit]
CCCCN(CCCC)NC(=O)c1ccccc1 |  | inconclusive: 1.12 µM [activator, single point]
CC(C)NC(=O)N1CC2(CCN(S(=O)(=O)c3ccccc3)CC2)C1 |  | inconclusive: 0.794 µM [activator, full curve, poor fit]
O=C(CN1CC(c2ccccc2)CC1=O)OCc1cccc(Br)c1 (centres undefined) |  | inconclusive: 35.5 µM [activator, single point]
CCN(c1ccccc1)S(=O)(=O)c1ccc(C(=O)Oc2ccc(C(C)=O)cc2)cc1 | inactive: -21.8% [at 10 µM] | 
C=C1C([C@@]2(C)C(OC(C)=O)CC(=O)O[C@@](C)(COC(C)=O)C2CC(=O)OC)C(OC=O)C(OC(=O)C(O)C(C)CC)[C@]2(C)C(c3ccoc3)CC(=O)C12O (some centres undefined) |  | inconclusive: 0.0631 µM [activator, full curve]
O=C(O)c1cccc(N2C(=O)/C(=C/c3ccc(SCc4ccc(Cl)cc4)o3)SC2=S)c1 |  | active: 20 µM
COCCCn1c(SCC(=O)NNC(=O)c2cccc(O)c2)nnc1-c1ccncc1 | inactive: -1.96% [at 10 µM] | 
COC(=O)[C@@H]1[C@@H]2C[C@H]3c4[nH]c5ccccc5c4CCN3C[C@@H]2CC[C@@H]1O |  | inconclusive: 89.1 nM [activator, full curve] and inconclusive: 708 nM [activator, single point]

Pulled one by one from above, six records:
Compound | cytoprotection (ATP increase) | Potency
O=C(COC(=O)c1ccc(Br)cc1)NCc1ccc(F)cc1 |  | inconclusive: 0.708 µM [activator, single point]
CCCc1c(-c2ccc(O)cc2)nn(-c2ccc(O)cc2)c1-c1ccc(O)cc1 |  | inconclusive: 31.6 µM [activator, partial curve, poor fit]
CCCCN(CCCC)NC(=O)c1ccccc1 |  | inconclusive: 1.12 µM [activator, single point]
CSC1=C(C#N)C(c2ccc(C)s2)CC(=O)N1 (centres undefined) |  | inconclusive: 0.1 µM [activator, full curve, poor fit]
Cc1nn(CC(=O)NCc2cccnc2)c(C)c1[N+](=O)[O-] |  | inconclusive: 5.62 µM [activator, single point]
O=[N+]([O-])c1c(Nc2ccccc2O)ccc2nonc12 |  | inconclusive: 0.501 µM [activator, full curve, poor fit]
